The supplement of paper PMC6078165
Values are relative to the signal before dosing, not to a vehicle control; the signal also falls without drug.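 Fibroblast labels name human fibroblasts: mostly primary ones from tissues such as uterus (C12385, HUF), lung (H6013), bone (Hs27A), adrenal (HADF) and skin (WS1), plus mammary HMF and breast cancer-associated Hs343T. The cancer cells are basal-like or mesenchymal-like triple-negative breast cancer lines. The paper calls a changed response a hit when it shifts by more than 3x the replicate standard deviation. The tissue of the other fibroblasts is not given here.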

System: MDAMB436
Assay: relative JC-1 red fluorescence (viability) vs pre-drug, coculture with fibroblast (fraction); higher = more viable cancer cells
Experimental: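 JC-1 labelled TNBC cells cocultured 1:1 (1,500 cells each) with CellTrace Violet stained primary or stromal fibroblasts in 384-well plates in FluoroBrite medium, treated with one of 42 anticancer drugs at 0.1, 1, 10 or 100 uM. JC-1 red fluorescence (mitochondrial integrity in cancer cells only) was read by plate reader every 8 h for 72 h. Values are normalised to each well's pre-drug value. The stock of one drug was tenfold lower, so its dose labels may be too high.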

O=C(O)C1(C(=O)O)CCC1.[NH2-].[NH2-].[Pt+2] [Carboplatin]
relative JC-1 red fluorescence
Settings	8 h	16 h	24 h	32 h	40 h	48 h	56 h	64 h	72 h
0.1 µM, coculture fibroblast: C12385	0.8065	0.697	0.6395	0.565	0.513	0.494	0.472	0.46	0.457
0.1 µM, coculture fibroblast: H6013	0.842	0.734	0.701	0.686	0.66	0.669	0.636	0.615	0.575
0.1 µM, coculture fibroblast: H6019	0.7466	0.634	0.619	0.54196	0.502	0.475	0.445	0.403	0.379
0.1 µM, coculture fibroblast: H6076	0.827	0.733	0.721	0.68	0.667	0.651	0.647	0.632	0.625
0.1 µM, coculture fibroblast: H6231	0.804	0.71	0.669	0.598	0.555	0.51	0.4875	0.459	0.426
0.1 µM, coculture fibroblast: HADF	0.801	0.708	0.668	0.629	0.597	0.5909	0.545	0.521	0.478
0.1 µM, coculture fibroblast: HCFa	0.7932	0.716	0.6841	0.653	0.622	0.626	0.562	0.544	0.484
0.1 µM, coculture fibroblast: HCPF	0.843	0.769	0.715	0.654	0.598	0.554	0.516	0.488	0.462
0.1 µM, coculture fibroblast: HHSteC	0.812	0.736	0.706	0.668	0.65	0.656	0.592	0.566	0.506
0.1 µM, coculture fibroblast: HMF	0.8	0.697	0.632	0.589	0.558	0.527	0.521	0.501	0.486
0.1 µM, coculture fibroblast: HPFa	0.929	0.821	0.7716	0.706	0.755	0.808	0.792	0.767	0.69
0.1 µM, coculture fibroblast: HUF	0.823	0.693	0.658	0.582	0.522	0.487	0.46	0.442	0.428
0.1 µM, coculture fibroblast: Hs5	0.7756	0.707	0.684	0.625	0.611	0.566	0.568	0.53	0.516
0.1 µM, coculture fibroblast: Hs27A	0.77	0.7	0.68	0.645	0.616	0.66	0.571	0.555	0.49
0.1 µM, coculture fibroblast: Hs343T	0.827	0.719	0.638	0.598	0.552	0.513	0.48	0.454	0.444
0.1 µM, coculture fibroblast: WS1	0.794	0.701	0.6674	0.588	0.544	0.524	0.499	0.471	0.464
1 µM, coculture fibroblast: C12385	0.7282	0.683	0.66	0.5822	0.54	0.523	0.506	0.4993	0.4964
1 µM, coculture fibroblast: H6013	0.7762	0.752	0.728	0.706	0.692	0.713	0.677	0.661	0.613
1 µM, coculture fibroblast: H6019	0.728	0.673	0.661	0.591	0.5633	0.5578	0.53155	0.5097	0.481
1 µM, coculture fibroblast: H6076	0.716	0.646	0.633	0.591	0.579	0.556	0.566	0.569	0.563
1 µM, coculture fibroblast: H6231	0.716	0.644	0.692	0.617	0.601	0.584	0.573	0.566	0.533
1 µM, coculture fibroblast: HADF	0.7966	0.739	0.706	0.67	0.657	0.684	0.625	0.621	0.581
1 µM, coculture fibroblast: HCFa	0.797	0.744	0.711	0.667	0.627	0.632	0.56	0.543	0.484
1 µM, coculture fibroblast: HCPF	0.768	0.696	0.662	0.601	0.5663	0.5359	0.516	0.494	0.471
1 µM, coculture fibroblast: HHSteC	0.789	0.766	0.726	0.688	0.68	0.688	0.628	0.607	0.551
1 µM, coculture fibroblast: HMF	0.75	0.665	0.635	0.578	0.545	0.508	0.497	0.482	0.472
1 µM, coculture fibroblast: HPFa	0.898	0.835	0.81	0.759	0.744	0.744	0.656	0.613	0.522
1 µM, coculture fibroblast: HUF	0.801	0.711	0.681	0.603	0.557	0.527	0.505	0.493	0.489
1 µM, coculture fibroblast: Hs5	0.781	0.7412	0.754	0.69	0.683	0.6387	0.645	0.625	0.6111
1 µM, coculture fibroblast: Hs27A	0.842	0.753	0.748	0.711	0.685	0.746	0.642	0.628	0.552
1 µM, coculture fibroblast: Hs343T	0.735	0.64	0.602	0.553	0.526	0.493	0.483	0.4658	0.4589
1 µM, coculture fibroblast: WS1	0.7244	0.694	0.667	0.594	0.555	0.541	0.524	0.495	0.49
